Binding data for two substances are collected here from article PMC5532388.

The chains behind the UniProt entries cited, without tags or fusion partners. Residues count along the entry.
UniProt P48356, residues 22-1162: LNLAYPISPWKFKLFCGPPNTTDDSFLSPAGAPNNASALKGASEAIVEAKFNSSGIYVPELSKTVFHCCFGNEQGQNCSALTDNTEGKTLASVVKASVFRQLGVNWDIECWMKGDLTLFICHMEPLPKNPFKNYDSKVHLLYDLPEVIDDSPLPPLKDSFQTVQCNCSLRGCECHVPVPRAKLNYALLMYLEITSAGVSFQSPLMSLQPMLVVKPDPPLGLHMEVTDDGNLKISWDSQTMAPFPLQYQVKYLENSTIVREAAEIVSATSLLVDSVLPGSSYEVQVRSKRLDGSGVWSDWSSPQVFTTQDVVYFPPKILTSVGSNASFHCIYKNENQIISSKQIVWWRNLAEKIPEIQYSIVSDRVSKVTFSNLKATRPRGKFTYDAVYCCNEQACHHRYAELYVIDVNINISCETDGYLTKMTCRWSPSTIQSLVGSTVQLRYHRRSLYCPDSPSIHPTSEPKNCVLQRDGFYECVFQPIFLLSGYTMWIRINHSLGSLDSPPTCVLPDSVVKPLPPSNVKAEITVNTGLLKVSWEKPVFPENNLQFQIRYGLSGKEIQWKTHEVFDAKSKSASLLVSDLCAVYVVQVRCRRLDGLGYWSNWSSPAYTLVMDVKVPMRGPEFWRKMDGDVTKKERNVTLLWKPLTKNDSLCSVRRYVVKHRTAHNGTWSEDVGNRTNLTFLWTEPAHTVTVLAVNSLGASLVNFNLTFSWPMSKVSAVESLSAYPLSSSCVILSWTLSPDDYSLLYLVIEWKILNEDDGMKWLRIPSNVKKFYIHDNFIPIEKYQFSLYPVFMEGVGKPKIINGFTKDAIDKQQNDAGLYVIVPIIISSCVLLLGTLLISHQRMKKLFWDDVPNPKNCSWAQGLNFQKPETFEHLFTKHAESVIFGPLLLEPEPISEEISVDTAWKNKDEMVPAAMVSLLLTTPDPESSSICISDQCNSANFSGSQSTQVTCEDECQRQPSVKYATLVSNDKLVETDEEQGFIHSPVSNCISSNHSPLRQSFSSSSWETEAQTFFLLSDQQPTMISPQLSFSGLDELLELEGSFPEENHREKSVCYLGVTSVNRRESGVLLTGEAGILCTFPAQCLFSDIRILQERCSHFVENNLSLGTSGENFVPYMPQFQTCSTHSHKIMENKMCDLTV
UniProt P42227: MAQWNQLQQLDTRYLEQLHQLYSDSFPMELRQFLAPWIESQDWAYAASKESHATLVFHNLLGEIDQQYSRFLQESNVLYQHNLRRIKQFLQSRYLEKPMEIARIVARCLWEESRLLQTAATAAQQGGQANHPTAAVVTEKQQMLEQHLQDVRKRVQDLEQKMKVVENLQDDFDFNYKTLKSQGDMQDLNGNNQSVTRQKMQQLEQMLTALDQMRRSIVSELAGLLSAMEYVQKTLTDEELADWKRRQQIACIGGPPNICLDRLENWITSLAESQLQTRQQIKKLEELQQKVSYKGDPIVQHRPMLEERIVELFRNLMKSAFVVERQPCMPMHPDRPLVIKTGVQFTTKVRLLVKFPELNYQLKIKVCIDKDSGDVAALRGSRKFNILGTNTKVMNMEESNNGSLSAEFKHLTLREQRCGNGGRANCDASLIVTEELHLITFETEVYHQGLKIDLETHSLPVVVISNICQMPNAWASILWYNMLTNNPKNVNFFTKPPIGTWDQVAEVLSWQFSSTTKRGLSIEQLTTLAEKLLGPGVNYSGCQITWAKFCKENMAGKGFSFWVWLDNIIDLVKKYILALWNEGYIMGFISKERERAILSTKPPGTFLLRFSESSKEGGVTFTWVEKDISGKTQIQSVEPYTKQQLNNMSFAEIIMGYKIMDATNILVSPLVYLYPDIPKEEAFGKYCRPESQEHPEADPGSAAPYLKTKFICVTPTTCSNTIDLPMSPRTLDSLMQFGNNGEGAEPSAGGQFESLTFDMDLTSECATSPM
UniProt O35718: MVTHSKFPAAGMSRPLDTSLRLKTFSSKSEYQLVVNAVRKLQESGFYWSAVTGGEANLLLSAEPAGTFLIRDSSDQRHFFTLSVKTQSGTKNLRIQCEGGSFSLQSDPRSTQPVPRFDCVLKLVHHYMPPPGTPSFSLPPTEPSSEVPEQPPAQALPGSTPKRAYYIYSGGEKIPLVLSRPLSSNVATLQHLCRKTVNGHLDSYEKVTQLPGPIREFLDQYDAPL

The target in this assay is ObRb, the fully functional isoform of leptin receptor (mouse (endogenous in hippocampus of C57BL/6 mice)) (UniProt P48356). As to the kind of experiment: co-IP; hippocampal lysates (KCl 50 mM, Tris-HCl 50 mM pH 8, EDTA 10 mM, 1% NP-40) of mice fed a standard diet or a high-fat diet and injected i.p. with vehicle or leptin (3 mg/kg); precleared, precipitated with mouse anti-ObRb or IgG control on protein G-sepharose, 6 h at 4°C, six washes; immunoblot for STAT-3 or SOCS-3.

These are yes or no findings as the source states them, for the method shown. In cells and extracts the contact can be indirect. Some entries that bind do so weakly or less than the wild type.

Turning to STAT-3 (from UniProt P42227 1-770), the binding result is reported as “binds”.

On to SOCS-3 (from UniProt O35718 1-225), for which the binding result is on record as “binds”.
